Measured values published in paper PMC6326806.
These are yes or no findings as the source states them, for the method shown. Binding seen in cells or lysates may run through a third protein. Some results given as binding are weak or reduced against the parent protein; the word gives no strength.

By UniProt entry, the sequences of proteins in these tests, tags left out. Where a name states a change or a piece, a line headed by the entry shows the natural chain unless it says otherwise. Chains listed by the source or under a name are the forms on record and can include a tag or linker.
UniProt P20248: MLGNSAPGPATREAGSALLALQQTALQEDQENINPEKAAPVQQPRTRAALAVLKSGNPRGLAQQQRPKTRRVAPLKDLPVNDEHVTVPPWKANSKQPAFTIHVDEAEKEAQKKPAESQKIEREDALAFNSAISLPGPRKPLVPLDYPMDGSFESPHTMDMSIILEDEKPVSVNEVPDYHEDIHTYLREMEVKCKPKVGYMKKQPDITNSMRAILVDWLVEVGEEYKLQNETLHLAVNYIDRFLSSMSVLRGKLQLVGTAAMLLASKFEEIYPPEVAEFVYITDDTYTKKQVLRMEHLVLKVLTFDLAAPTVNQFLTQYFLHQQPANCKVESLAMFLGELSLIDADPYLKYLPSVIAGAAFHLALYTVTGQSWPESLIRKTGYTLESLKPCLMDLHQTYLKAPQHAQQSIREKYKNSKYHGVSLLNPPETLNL
UniProt Q13526: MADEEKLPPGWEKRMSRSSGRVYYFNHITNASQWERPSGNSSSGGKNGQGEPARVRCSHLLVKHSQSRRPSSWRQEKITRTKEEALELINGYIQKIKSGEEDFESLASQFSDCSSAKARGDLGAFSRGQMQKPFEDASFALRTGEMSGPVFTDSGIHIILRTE
UniProt P10244: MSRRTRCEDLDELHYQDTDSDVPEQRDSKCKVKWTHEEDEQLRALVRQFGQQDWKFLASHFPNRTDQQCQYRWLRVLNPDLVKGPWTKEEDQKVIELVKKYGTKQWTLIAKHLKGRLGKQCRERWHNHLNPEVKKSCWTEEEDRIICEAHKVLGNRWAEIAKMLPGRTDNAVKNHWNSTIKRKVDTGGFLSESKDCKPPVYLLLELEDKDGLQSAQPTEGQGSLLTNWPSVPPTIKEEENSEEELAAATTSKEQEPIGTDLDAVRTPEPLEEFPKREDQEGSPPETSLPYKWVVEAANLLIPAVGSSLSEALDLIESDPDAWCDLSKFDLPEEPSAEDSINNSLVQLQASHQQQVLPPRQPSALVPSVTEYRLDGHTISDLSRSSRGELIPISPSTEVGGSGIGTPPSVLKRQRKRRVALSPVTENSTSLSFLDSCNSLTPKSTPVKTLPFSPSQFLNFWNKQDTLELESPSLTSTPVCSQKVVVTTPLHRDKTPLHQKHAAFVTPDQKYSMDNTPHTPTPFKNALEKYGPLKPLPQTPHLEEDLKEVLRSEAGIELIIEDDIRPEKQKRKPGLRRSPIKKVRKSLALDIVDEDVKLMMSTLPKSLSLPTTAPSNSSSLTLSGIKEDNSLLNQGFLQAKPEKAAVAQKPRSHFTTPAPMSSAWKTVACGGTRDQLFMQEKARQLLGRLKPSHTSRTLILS
B-Myb(CBM) (P10244, form named): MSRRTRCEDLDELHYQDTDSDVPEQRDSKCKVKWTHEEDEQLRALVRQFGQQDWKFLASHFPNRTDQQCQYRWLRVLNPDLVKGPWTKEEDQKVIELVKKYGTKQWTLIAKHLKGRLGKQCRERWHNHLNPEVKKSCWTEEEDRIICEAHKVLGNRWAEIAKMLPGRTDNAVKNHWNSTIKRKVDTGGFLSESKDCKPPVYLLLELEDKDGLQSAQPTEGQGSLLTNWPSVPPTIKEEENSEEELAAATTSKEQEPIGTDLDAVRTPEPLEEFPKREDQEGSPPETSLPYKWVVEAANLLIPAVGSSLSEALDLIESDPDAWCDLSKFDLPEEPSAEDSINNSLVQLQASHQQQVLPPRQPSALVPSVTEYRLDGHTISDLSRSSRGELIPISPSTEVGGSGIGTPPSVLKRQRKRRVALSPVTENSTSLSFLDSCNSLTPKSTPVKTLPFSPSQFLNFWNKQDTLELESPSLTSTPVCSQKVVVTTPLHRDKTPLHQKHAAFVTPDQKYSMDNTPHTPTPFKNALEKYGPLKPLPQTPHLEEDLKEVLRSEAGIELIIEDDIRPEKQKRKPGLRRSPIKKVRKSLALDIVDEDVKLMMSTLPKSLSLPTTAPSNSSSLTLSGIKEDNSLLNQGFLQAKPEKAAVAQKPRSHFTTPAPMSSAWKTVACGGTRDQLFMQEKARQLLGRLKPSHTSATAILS

How the values were obtained:
GFP-cyclin A = GFP-cyclin A (UniProt P20248); assay: co-IP; QT6 cells co-transfected with B-Myb(wt) or B-Myb(CBM) and GFP or GFP-cyclin A; lysates precipitated with GFP-trap beads; western blot
GST-Pin1 [1] = molecular target: GST-Pin1 (UniProt Q13526); assay: pull-down; GST-Pin1 on glutathione-sepharose beads incubated with lysates of QT6 cells transiently expressing B-Myb proteins, with or without cyclin A/Cdk2; cells asynchronous or 24 h in serum-free or mimosine-containing medium; western blot; only the target purified
GST-cyclin A = GST-cyclin A (UniProt P20248); assay: pull-down; GST or GST-cyclin A on glutathione-sepharose beads incubated with lysates of QT6 cells transiently expressing B-Myb(wt) or B-Myb(CBM); western blot for B-Myb; only the target purified
GST-Plk1 (human) = GST-Plk1 (human) (UniProt P53350); assay: pull-down; GST-Plk1 on glutathione-sepharose beads incubated with lysates of QT6 cells transiently expressing B-Myb(wt) or B-Myb(T476A); western blot; only the target purified
GFP-B-Myb(T476A) (human) = GFP-B-Myb(T476A) (human) (UniProt P10244); assay: co-IP; QT6 cells transiently expressing Myc-Plk1 with GFP-B-Myb(wt) or GFP-B-Myb(T476A); lysates precipitated with GFP-trap beads; western blot
GFP-B-Myb(wt) (human) = GFP-B-Myb(wt) (human) (UniProt P10244); assay: as above
GST-Pin1 [2] = molecular target: GST-Pin1 (UniProt Q13526); assay: condition: only cells pretreated with roscovitine or RO-3306 for 30 min; pull-down; as a1, but cells pretreated with roscovitine or RO-3306 for 30 min before lysis; only the target purified
[3] = molecular target: endogenous Pin1 (human (endogenous in HepG2)) (UniProt Q13526); assay: co-IP; HepG2 lysates (unsynchronized cells, modified ELB buffer with 150 mM NaCl, 0.5% Triton X-100) immunoprecipitated with Pin1-specific or control IgG antibodies; western blot for B-Myb, phospho-B-Myb(T487), Pin1
GST-Pin1 [4] = molecular target: GST-Pin1 (UniProt Q13526); assay: pull-down; GST-Pin1 on glutathione-sepharose beads incubated with lysates of Hek293 or HepG2 cells, untreated or treated with STLC for 12 h (binding strongly enhanced with STLC); ELB buffer, 4°C; western blot for B-Myb and phospho-B-Myb(T487); only the target purified
[5] = molecular target: endogenous Plk1 (human (endogenous in HepG2 and Hek293)) (UniProt P53350); assay: co-IP; lysates of HepG2 or Hek293 cells (asynchronous, S-phase, G2/M, STLC; or roscovitine or RO-3306 for 30 min: association diminished) immunoprecipitated with pan-B-Myb, phospho-B-Myb(T487), Plk1 or control antibodies; western blot
[6] = molecular target: endogenous B-Myb, slower migrating, phosphorylated forms (human (endogenous in Hek293 and HepG2)) (UniProt P10244); assay: as above

**Q.** How did the binding (GFP-cyclin A) turn out when B-Myb(CBM) (from UniProt P10244 1-700) was run?
**A.** Its binding is “no binding”.

**Q.** What about the binding (GST-Pin1 [1]) of the same substance?
**A.** The binding was “binds”.

**Q.** And the binding (GST-cyclin A)?
**A.** Its binding is “no binding”.

**Q.** “B-Myb(T476A) (from UniProt P10244 1-700)” was tested. Which binding (GST-Plk1 (human)) did it give?
**A.** The binding was “no binding”.

**Q.** “B-Myb(wt), transiently expressed (from UniProt P10244 1-700)” was tested. Which binding (GFP-cyclin A) did it give?
**A.** The binding was “binds”.

**Q.** And the binding (GST-Plk1 (human))?
**A.** Its binding is “binds”.

**Q.** What about the binding (GST-Pin1 [1]) of the same substance?
**A.** The binding was “binds”.

**Q.** And the binding (GST-cyclin A)?
**A.** Its binding is “binds”.

**Q.** For “Myc-Plk1 (from UniProt P53350 1-603) (enzyme)”, which binding (GFP-B-Myb(T476A) (human)) is on record?
**A.** Its binding is “no binding”.

**Q.** And the binding (GFP-B-Myb(wt) (human))?
**A.** Its binding is “binds”.

**Q.** “endogenous B-Myb, slower migrating, phosphorylated forms (from UniProt P10244 1-700)” was tested. Which binding (GST-Pin1 [2]) did it give?
**A.** Its binding is “no binding”.

**Q.** What about the binding [3] of the same substance?
**A.** The binding was “binds”.

**Q.** And the binding (GST-Pin1 [4])?
**A.** Its binding is “binds”.

**Q.** And the binding [5]?
**A.** Its binding is “binds”.

**Q.** For “endogenous Plk1 (from UniProt P53350 1-603) (enzyme)”, which binding [6] is on record?
**A.** Its binding is “binds”.
